Reference: the supplement of paper PMC10849652
This is one part of the list.

The chains behind the UniProt entries cited, without tags or fusion partners. Where a name states a change or a piece, a line headed by the entry shows the natural chain unless it says otherwise.
UniProt Q53FA7: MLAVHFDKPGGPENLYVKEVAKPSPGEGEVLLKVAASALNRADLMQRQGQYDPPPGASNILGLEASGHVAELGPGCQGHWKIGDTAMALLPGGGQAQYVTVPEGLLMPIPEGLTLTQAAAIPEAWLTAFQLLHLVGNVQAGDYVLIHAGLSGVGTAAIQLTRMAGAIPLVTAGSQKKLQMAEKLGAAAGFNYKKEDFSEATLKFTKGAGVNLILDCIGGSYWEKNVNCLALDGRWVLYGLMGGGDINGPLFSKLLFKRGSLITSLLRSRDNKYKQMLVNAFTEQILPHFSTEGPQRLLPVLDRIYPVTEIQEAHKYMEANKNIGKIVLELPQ
UniProt P06753, whole entry, looked up: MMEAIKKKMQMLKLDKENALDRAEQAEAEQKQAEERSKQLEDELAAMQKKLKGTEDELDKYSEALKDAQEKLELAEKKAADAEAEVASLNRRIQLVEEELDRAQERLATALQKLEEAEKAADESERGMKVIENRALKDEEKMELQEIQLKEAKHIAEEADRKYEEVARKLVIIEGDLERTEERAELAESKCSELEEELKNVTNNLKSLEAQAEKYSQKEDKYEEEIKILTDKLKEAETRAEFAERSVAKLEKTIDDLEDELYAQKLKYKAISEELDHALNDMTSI
UniProt Q6UW68: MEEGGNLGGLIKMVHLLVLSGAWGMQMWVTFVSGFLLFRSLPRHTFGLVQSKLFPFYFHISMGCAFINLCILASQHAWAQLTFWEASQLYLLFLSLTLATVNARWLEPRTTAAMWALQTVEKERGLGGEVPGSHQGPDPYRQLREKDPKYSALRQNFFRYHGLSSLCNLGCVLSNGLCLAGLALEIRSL
UniProt O95379: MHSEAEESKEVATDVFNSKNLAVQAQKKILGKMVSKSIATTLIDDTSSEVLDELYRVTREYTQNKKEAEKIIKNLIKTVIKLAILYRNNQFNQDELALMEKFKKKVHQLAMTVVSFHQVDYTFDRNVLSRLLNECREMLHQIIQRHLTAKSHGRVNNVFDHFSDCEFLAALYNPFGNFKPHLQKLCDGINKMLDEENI
UniProt Q9NWH2: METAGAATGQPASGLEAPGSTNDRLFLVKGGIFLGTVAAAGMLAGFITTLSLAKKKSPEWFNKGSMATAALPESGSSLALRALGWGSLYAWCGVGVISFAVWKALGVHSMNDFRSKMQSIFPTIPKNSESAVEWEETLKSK
UniProt Q5T292: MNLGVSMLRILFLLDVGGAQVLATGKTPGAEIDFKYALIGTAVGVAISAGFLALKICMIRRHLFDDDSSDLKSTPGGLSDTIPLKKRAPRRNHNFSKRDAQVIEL
UniProt Q9BVT8: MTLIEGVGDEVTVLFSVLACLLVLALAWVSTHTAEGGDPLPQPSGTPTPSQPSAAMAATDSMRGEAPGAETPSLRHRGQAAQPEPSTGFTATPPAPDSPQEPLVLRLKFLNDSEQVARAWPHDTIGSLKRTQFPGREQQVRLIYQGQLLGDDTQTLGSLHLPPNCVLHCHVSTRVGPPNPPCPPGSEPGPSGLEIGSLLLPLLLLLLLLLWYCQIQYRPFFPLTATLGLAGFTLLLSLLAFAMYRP
UniProt P12270, whole entry, looked up: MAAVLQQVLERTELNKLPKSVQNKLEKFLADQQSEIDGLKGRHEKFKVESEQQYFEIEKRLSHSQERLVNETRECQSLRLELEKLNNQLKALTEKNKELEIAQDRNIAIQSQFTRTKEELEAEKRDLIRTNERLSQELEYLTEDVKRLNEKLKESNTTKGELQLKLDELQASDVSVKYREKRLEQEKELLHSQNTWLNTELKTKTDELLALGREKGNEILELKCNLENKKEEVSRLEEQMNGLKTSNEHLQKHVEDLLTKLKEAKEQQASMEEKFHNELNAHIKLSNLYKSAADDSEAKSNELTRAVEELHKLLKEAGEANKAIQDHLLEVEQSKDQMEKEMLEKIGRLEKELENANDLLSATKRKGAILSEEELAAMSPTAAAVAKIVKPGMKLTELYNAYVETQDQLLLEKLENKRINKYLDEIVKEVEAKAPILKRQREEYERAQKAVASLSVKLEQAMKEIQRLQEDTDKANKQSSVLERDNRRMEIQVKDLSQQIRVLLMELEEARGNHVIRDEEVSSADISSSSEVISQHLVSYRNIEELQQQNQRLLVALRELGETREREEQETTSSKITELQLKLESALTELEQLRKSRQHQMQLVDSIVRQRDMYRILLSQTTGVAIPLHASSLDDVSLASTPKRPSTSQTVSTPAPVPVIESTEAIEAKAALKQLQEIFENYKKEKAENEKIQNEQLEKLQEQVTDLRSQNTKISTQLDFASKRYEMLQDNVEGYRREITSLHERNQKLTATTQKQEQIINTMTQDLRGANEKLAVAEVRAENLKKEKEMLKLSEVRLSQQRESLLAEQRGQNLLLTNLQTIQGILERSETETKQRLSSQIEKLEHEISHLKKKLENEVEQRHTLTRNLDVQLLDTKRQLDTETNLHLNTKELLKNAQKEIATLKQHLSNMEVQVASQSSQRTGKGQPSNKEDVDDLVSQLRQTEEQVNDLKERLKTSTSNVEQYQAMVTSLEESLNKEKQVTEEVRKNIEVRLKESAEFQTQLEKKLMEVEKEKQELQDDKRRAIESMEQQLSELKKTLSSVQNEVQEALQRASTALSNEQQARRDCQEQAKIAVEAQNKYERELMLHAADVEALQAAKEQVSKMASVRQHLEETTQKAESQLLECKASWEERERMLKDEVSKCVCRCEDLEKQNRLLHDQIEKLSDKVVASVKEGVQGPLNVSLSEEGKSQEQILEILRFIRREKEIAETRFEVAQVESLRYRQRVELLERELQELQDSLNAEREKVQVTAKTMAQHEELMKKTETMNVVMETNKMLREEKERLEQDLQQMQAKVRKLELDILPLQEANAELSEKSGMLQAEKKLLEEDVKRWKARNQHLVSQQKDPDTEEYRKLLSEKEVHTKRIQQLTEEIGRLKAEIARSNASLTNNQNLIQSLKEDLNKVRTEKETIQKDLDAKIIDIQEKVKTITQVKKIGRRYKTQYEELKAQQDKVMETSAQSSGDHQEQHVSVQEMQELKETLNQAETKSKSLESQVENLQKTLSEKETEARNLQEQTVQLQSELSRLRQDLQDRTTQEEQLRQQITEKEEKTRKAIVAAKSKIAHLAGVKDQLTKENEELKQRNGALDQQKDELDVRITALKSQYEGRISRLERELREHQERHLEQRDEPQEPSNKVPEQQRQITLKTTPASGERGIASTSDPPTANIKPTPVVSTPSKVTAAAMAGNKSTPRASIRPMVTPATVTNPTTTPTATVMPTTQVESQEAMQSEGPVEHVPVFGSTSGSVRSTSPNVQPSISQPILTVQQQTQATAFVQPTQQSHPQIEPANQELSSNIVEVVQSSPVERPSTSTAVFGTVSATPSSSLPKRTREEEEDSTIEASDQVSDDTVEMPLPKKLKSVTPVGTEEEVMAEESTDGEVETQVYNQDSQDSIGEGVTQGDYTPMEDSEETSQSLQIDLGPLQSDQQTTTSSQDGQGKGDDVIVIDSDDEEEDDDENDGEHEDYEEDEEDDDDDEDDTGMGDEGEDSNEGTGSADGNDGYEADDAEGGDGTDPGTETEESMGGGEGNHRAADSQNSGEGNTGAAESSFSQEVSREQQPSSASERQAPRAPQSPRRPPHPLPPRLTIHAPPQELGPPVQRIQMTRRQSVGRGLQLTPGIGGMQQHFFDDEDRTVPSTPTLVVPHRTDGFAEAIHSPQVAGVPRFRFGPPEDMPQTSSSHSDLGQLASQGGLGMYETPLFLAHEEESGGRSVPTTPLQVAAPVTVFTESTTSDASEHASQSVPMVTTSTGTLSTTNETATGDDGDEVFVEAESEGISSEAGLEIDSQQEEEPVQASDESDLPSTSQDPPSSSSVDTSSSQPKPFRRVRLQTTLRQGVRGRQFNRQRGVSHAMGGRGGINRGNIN
UniProt O60704: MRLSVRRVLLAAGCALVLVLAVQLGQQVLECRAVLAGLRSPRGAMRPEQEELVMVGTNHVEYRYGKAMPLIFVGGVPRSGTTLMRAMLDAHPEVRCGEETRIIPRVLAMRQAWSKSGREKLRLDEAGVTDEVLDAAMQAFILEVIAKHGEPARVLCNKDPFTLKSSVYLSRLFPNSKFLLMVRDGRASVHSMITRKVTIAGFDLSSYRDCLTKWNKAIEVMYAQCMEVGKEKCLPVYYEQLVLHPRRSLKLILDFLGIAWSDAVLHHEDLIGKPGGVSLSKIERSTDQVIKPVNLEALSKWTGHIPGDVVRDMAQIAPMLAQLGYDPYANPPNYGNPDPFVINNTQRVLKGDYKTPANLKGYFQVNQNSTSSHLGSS
UniProt Q5JTV8: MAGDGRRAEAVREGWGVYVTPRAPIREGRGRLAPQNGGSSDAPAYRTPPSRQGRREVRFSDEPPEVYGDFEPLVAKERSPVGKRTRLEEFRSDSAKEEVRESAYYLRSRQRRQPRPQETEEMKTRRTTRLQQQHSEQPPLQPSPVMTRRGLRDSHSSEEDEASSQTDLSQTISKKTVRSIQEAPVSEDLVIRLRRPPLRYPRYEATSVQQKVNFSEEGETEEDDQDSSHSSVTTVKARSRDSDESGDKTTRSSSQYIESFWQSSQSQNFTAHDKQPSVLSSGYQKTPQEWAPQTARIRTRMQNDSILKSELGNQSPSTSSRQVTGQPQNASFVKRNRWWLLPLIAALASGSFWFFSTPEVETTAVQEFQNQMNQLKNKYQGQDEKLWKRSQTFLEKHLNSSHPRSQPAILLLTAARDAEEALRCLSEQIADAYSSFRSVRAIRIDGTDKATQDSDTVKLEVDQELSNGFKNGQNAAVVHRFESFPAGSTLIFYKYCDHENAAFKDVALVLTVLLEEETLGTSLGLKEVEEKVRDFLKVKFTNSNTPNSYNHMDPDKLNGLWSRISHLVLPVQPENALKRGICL
UniProt Q8N9V7: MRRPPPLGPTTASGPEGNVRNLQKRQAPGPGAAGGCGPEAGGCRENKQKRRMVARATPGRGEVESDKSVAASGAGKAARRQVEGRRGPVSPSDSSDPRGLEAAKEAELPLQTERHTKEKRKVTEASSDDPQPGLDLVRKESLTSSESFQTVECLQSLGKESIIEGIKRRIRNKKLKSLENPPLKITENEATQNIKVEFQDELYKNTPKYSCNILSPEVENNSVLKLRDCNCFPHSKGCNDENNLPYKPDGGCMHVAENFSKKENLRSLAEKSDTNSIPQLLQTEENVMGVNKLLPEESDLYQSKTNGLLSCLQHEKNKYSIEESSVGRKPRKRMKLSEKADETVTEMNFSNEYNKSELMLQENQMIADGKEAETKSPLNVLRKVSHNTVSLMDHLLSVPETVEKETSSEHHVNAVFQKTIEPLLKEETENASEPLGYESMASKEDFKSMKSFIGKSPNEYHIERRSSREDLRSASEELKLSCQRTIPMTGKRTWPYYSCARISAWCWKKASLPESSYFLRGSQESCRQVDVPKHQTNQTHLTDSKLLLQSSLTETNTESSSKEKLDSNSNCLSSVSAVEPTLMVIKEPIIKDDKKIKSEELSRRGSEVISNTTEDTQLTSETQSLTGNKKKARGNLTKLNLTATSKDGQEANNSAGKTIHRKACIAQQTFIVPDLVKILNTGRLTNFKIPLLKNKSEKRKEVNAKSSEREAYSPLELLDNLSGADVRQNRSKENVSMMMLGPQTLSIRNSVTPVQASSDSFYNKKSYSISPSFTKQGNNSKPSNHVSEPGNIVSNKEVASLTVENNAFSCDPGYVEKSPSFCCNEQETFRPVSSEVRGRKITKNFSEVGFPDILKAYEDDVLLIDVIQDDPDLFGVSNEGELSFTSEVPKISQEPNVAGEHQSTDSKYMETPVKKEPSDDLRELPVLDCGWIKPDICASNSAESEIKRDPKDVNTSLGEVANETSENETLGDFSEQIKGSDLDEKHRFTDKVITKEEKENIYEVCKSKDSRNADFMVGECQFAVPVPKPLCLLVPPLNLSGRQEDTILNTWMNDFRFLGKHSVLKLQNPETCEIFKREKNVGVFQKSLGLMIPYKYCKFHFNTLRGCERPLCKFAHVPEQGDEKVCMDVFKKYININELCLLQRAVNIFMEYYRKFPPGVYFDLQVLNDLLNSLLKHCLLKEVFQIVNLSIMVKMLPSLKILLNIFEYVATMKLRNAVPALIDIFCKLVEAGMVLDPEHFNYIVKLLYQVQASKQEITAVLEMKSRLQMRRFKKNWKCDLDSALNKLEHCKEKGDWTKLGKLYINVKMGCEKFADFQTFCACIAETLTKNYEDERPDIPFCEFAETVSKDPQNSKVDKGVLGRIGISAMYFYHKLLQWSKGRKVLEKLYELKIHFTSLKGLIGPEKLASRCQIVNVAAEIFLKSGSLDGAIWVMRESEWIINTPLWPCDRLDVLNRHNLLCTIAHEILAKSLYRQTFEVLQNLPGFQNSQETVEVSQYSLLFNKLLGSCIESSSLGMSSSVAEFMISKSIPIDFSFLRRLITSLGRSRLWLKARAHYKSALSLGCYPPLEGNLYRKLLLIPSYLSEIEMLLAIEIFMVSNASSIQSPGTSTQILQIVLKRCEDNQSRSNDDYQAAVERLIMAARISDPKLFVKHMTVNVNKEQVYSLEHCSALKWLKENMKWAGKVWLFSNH

Legend:
Assay in all cases: log2 fold change, soluble protein after heating vs DMSO (PISA); higher = thermal stabilisation; K562 lysate, 10 uM; active = over 0.2 and 3.5 SD of the protein, either way, in both replicates (recomputed)
[1] = compound: C1=CC=C(C=C1)[C@H](COC2=CC3=C(C=C2)NC(=O)N3)NC(=O)C4=CC=CN(C4=O)CC5=CC(=C(C=C5)F)F
Summary of the method: (§1)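 Dounce homogenisation of K562 pellets in PBS pH 7.4 with 1 mM MgCl2 produced a crude extract, used at 1 mg/mL protein. Exposure to 10 μM compound lasted 30 min, and aliquots were then heated for 3 min across 48°C-58°C, pooled and brought to 0.5% NP-40 at 4°C. The supernatant after 21,000xg for 90 min was quantified by TMTpro 16plex LC-MS/MS with channel sums equalised. Duplicate values are given as log-two fold change in thermal stability relative to solvent controls.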

[2] = compound: CC1=C(SC2=C1C(=N[C@H](C3=NN=C(N32)C)CC(=O)N)C4=CC=C(C=C4)Cl)C
Summary of the method: as §1

[3] = compound: CC1=C2C(=CC=C1)N=C(N(C2=O)C3=CC=CC=C3C)CN4C=NC5=C(N=CN=C54)N
Summary of the method: as §1

[4] = compound: Cc1sc2c(c1C)C(c1ccc(Cl)cc1)=N[C@@H](CC(=O)OC(C)(C)C)c1nnc(C)n1-2
Summary of the method: as §1

[5] = compound: c1ccc([C@@H]2C[C@H]2NC2CCNCC2)cc1
Summary of the method: as §1

Measured: log2 fold change

TPK1 (UniProt Q9H3S4)
inactive: [1] -0.173 | [2] 0.036 | [3] 0.027 | [4] 0.017 | [5] 0.01

TMEM230 isoform 2 (UniProt Q96A57)
inactive: [1] -0.046 | [2] -0.117 | [3] -0.164 | [4] -0.076 | [5] -0.106

TMX3 (UniProt Q96JJ7)
inactive: [1] 0.007 | [2] -0.02 | [3] -0.008 | [4] -0.015 | [5] -0.023

TP53I3 (UniProt Q53FA7)
inactive: [1] 0.039 | [2] -0.019 | [3] -0.05 | [4] 0.013 | [5] -0.045

TONSL (UniProt Q96HA7)
inactive: [1] 0.008 | [2] 0.018 | [3] 0.045 | [4] 0.04 | [5] 0.066

Copied from above (2 entries):
TMEM230 isoform 2 (UniProt Q96A57)
inactive: [1] -0.046 | [2] -0.117 | [3] -0.164 | [4] -0.076 | [5] -0.106

TMX3 (UniProt Q96JJ7)
inactive: [1] 0.007 | [2] -0.02 | [3] -0.008 | [4] -0.015 | [5] -0.023

Continued.

TPM3 isoform 2 (UniProt P06753)
inactive: [1] -0.02 | [2] 0.01 | [3] -0.025 | [4] -0.009 | [5] 0.056

TOP3A (UniProt Q13472)
inactive: [1] 0.08 | [2] -0.012 | [3] 0.009 | [4] 0.028 | [5] 0.055

TMEM205 (UniProt Q6UW68)
inactive: [1] -0.162 | [2] -0.112 | [3] 0.097 | [4] -0.124

TMEM259 (UniProt Q4ZIN3)
inactive: [1] -0.041 | [2] 0.044 | [3] 0.082 | [4] -0.062 | [5] 0.069

TNFAIP8 isoform 4 (UniProt O95379)
inactive: [1] -0.013 | [2] -0.033 | [3] 0.106 | [4] -0.05 | [5] 0.069

TMPO isoform 2 (UniProt P42167)
inactive: [1] 0.11 | [2] 0.088 | [3] 0.033 | [4] -0.069

TMEM219 (UniProt Q86XT9)
inactive: [1] -0.037 | [2] 0.001 | [3] -0.003 | [4] -0.016 | [5] 0.042

TPMT (UniProt P51580)
inactive: [1] 0.011 | [2] -0.013 | [3] 0.016 | [4] -0.008 | [5] 0.006

TMEM41A (UniProt Q96HV5)
inactive: [1] -0.016 | [2] -0.013 | [3] 0.029 | [4] -0.002 | [5] -0.067

TMEM94 isoform 2 (UniProt Q12767)
inactive: [1] 0.079 | [2] 0.213 | [3] 0.105 | [4] -0.089

TMEM242 (UniProt Q9NWH2)
inactive: [1] 0.127 | [2] -0.001 | [3] -0.044 | [4] 0.089 | [5] -0.01

TPRKB (UniProt Q9Y3C4)
inactive: [1] 0.002 | [2] 0.001 | [3] -0.023 | [4] -0.033 | [5] -0.011

TMEM273 isoform 2 (UniProt Q5T292)
inactive: [1] 0.083 | [2] 0.082

TMUB1 (UniProt Q9BVT8)
inactive: [1] -0.037 | [2] 0.003 | [3] 0.082 | [4] -0.007 | [5] 0.152

TPR (UniProt P12270)
inactive: [1] 0.034 | [2] -0.012 | [3] -0.012 | [4] -0.005 | [5] 0.007

TRA2A (UniProt Q13595)
inactive: [1] -0.076 | [2] 0.065 | [3] 0.034 | [4] -0.054 | [5] 0.004

TPM1 isoform 4 (UniProt P09493)
inactive: [1] -0.008 | [2] -0.012 | [3] 0 | [4] 0.003 | [5] 0.056

TPST2 (UniProt O60704)
inactive: [1] -0.034 | [2] 0.021 | [3] -0.028 | [4] -0.054 | [5] -0.384

TOR1AIP1 (UniProt Q5JTV8)
inactive: [1] 0.113 | [2] 0.109 | [3] -0.319 | [4] -0.132

TOPAZ1 (UniProt Q8N9V7)
inactive: [1] -0.068 | [2] 0.028 | [3] -0.02
